# Laboratory results: PubChem BioAssay AID1259254 (NCATS, 2017)
# Aim: 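Finding genes that stop cells copying their DNA twice in one cycle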 (primary screen)
# Cells: human HCT116 colorectal cancer cells
# Reagent: single siRNA against human genes
# Time to read-out: 3 days
# Measurement: 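Nuclei stained with Hoechst and imaged; cell-cycle phase assigned by DNA content; G2 share scaled per plate, non-targeting siRNA 0%, GMNN siRNA 100%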
# Reading the numbers: G2 robust z-score: higher = more G2 cells, more excess DNA replication
# Hit rule: 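An siRNA counts as active if its G2 robust z-score lies at least 5 MADs above the screen median; here such calls match roughly 38% of GMNN control or more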
# Shown is one part, drawn at random, of about 59,000 deposited reagents. About 1,550 of all reagents (2.6%) count as active. 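G2 share is only a proxy for re-replication; each gene was hit by three separate siRNAs, and active genes were retested.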 Reagents against one gene are numbered here. Further read-outs or replicates are left out here. Not stated in the record: the amount of reagent.
gene,reagent no.,G2 robust z-score,call
CCL11,1,-0.651,inactive
CCL11,2,-0.276,inactive
CCL11,3,1.62,inactive
CD8A,1,-0.219,inactive
CD8A,2,-0.096,inactive
CD8A,3,-0.526,inactive
PCP4L1,1,0.0434,inactive
PCP4L1,2,2.79,inactive
PCP4L1,3,0.0791,inactive
FOXD4L6,1,0.217,inactive
FOXD4L6,2,-0.319,inactive
FOXD4L6,3,-0.89,inactive
RPA3,1,0.0594,inactive
RPA3,2,0.0541,inactive
RPA3,3,0.357,inactive
YPEL5,1,0.509,inactive
YPEL5,2,0.586,inactive
YPEL5,3,0.245,inactive
KDM6A,1,-0.204,inactive
KDM6A,2,-0.612,inactive
KDM6A,3,-0.357,inactive
FGF9,1,-0.276,inactive
FGF9,2,2.6,inactive
FGF9,3,0.0968,inactive
SPATA22,1,-0.83,inactive
SPATA22,2,0.00214,inactive
SPATA22,3,0.157,inactive
STPG3,1,0.00748,inactive
STPG3,2,1.84,inactive
STPG3,3,1.02,inactive
FOXR1,1,-0.135,inactive
FOXR1,2,1.94,inactive
FOXR1,3,-1.16,inactive
HSF4,1,0.209,inactive
HSF4,2,0.794,inactive
HSF4,3,-0.697,inactive
FLI1,1,-0.432,inactive
FLI1,2,-0.25,inactive
FLI1,3,-0.555,inactive
RAB11FIP2,1,-0.209,inactive
RAB11FIP2,2,1.23,inactive
RAB11FIP2,3,1.32,inactive
MRPL16,1,1.37,inactive
MRPL16,2,6.43,active
MRPL16,3,3.88,inactive
CLDN4,1,-0.152,inactive
CLDN4,2,-0.272,inactive
CLDN4,3,-0.26,inactive
MXI1,1,-0.556,inactive
MXI1,2,-0.495,inactive
MXI1,3,1.2,inactive
LYZL4,1,1,inactive
LYZL4,2,-0.494,inactive
LYZL4,3,0.465,inactive
NOXRED1,1,0.328,inactive
NOXRED1,2,0.0637,inactive
NOXRED1,3,-0.619,inactive
PRPF8,1,5.06,active
PRPF8,2,2.49,inactive
PRPF8,3,3.11,inactive
DPT,1,-0.975,inactive
DPT,2,2.51,inactive
DPT,3,0.904,inactive
SLC6A8,1,0.263,inactive
SLC6A8,2,-0.517,inactive
SLC6A8,3,2.15,inactive
ODAD1,1,-0.0512,inactive
ODAD1,2,0.481,inactive
ODAD1,3,0.614,inactive
TTC39B,1,-1.04,inactive
TTC39B,2,-0.509,inactive
TTC39B,3,-0.0786,inactive
TFAP2C,1,-0.903,inactive
TFAP2C,2,0.116,inactive
TFAP2C,3,-0.655,inactive
NRSN1,1,0.362,inactive
NRSN1,2,1.87,inactive
NRSN1,3,-0.477,inactive
NXPE4,1,-0.154,inactive
NXPE4,2,-0.659,inactive
NXPE4,3,2.87,inactive
SCRN2,1,2.87,inactive
SCRN2,2,-0.165,inactive
SCRN2,3,-0.633,inactive
HS3ST6,1,5.27,active
HS3ST6,2,-0.766,inactive
HS3ST6,3,-0.513,inactive

Reformatted: entries from further up.
{"gene": "FOXR1", "reagent no.": 3, "G2 robust z-score": -1.16, "call": "inactive"}
{"gene": "HSF4", "reagent no.": 1, "G2 robust z-score": 0.209, "call": "inactive"}
{"gene": "HSF4", "reagent no.": 2, "G2 robust z-score": 0.794, "call": "inactive"}
{"gene": "HSF4", "reagent no.": 3, "G2 robust z-score": -0.697, "call": "inactive"}
